Values of other authors, collected in patent publication US10058529B2, “Nutraceutical composition for PDE4 inhibition, enhanced dopamine metabolism and long term potentiation” (priority 2013, dated 2018).
For at least one compound, name, drawing or mass did not settle the structure.

Tested on: acetylcholinesterase
Details: cited from earlier work

## C=C[C@@]1(C)CC(=O)[C@]2(O)[C@@]3(C)[C@@H](O)CCC(C)(C)[C@@H]3[C@H](O)[C@H](OC(C)=O)[C@@]2(C)O1 [Forskolin, forskolin]
  transcription of the enzyme acetylcholinesterase: increases
